Measured values taken from PMC10272136, “Molecular mechanisms of Holliday junction branch migration catalyzed by an asymmetric RuvB hexamer” (Nature Communications, 2022).
The exact form of at least one protein or probe is not confirmed. At least one verdict rests on a figure or table, not on a statement of the authors. For part of these data: Tags and fusion partners may be left off the protein sequences shown.

Experiments:
RuvB double hexamer = molecular target: T1, RuvB double hexamer (UniProt Q5SL87); assay: cryo-EM structure; conditions: 2 mM ATPgS, 10 mM MgCl2, double hexamer on dsDNA part, 20 mM Tris-HCl pH 7.5, 10 mM MgCl2, 1 mM DTT, 30 min at 37 C, gel filtration in 20 mM Tris-HCl, 150 mM NaCl, recombinant protein, protein details: N-terminal His tag (pET-28a, NdeI/SalI), folded or branched DNA
T1 sequence (looked up, limits assumed): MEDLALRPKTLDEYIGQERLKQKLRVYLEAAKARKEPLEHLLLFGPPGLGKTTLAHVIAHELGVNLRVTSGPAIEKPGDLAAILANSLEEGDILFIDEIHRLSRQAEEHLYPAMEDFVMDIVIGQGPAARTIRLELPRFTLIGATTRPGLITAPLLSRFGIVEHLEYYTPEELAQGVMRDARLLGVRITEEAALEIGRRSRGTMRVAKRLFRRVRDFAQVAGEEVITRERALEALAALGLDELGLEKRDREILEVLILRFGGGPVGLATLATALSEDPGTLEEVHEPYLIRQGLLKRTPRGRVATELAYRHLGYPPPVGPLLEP

RuvB = molecular target: T2, RuvB (UniProt Q5SL87); assay: cryo-EM structure; conditions: 2 mM ATPgS, 10 mM MgCl2, single hexamer on dsDNA part (>20 bp seen), protomers A-D contact DNA, E and F do not, 20 mM Tris-HCl pH 7.5, 10 mM MgCl2, 1 mM DTT, 30 min at 37 C, gel filtration in 20 mM Tris-HCl, 150 mM NaCl, recombinant protein, protein details: N-terminal His tag (pET-28a, NdeI/SalI), folded or branched DNA
T2 sequence (looked up, limits assumed): T1 sequence (looked up, limits assumed)

RuvB + RuvA = assay: gel filtration; conditions: 2 mM ATPgS, 10 mM MgCl2, RuvB:RuvA:HJ 6:4:1, no useful cryo-EM dataset of ternary complex, 20 mM Tris-HCl pH 7.5, 10 mM MgCl2, 1 mM DTT, 30 min at 37 C, gel filtration in 20 mM Tris-HCl, 150 mM NaCl, recombinant protein, folded or branched DNA

Measured: binding result

AGAATCTGCCGAGAGACCGAGCAGAATTCTATGTGTTTACCAAGCGCTG / CAGCGCTTGGTAAACACATAGAATTCTGCTCGGTCTGAGCCGTCTAAGA / TCTTAGACGGCTCACTGGCTGTGGGATCCGAGCTGTCTAGAGACATCGA / TCGATGTCTCTAGACAGCTCGGATCCCACAGCCAGTCTCGGCAGATTCT [HJ DNA (HJ1-HJ4)]
binds: all assays above
